From publication PMC8898311
No constants are given. Whether binding was seen depends on the method and setting. In cells and extracts the contact can be indirect. These calls come from enrichment with a bait or labelling near it, and not all partners need be listed.

Molecular target: T1, NOP2/Sun RNA methyltransferase 5 (NSUN5) (rat (endogenous in BMSCs of Sprague Dawley rats)) (UniProt G3V660)
T1 sequence: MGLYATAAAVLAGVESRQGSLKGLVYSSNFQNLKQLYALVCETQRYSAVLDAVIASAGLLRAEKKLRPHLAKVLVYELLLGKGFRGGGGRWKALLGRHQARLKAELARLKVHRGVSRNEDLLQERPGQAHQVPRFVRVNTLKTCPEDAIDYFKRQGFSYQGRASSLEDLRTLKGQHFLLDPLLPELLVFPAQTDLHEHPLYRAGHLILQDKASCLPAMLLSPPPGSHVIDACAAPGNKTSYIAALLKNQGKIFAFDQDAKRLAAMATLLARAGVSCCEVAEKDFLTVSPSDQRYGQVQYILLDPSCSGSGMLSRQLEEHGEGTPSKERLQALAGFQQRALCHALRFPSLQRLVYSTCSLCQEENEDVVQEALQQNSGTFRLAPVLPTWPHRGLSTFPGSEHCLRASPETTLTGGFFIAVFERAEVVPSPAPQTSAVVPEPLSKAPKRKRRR
Test: affinity purification with mass spectrometry; co-IP products run on 12.5% nondenaturing polyacrylamide gels, silver stained, analysed by LC-MS/MS (BGI)

B1: tumor necrosis factor receptor-associated protein 1 (TRAP1) (protein, UniProt Q5XHZ0 61-706)
chain: STQAAEDKKEEALHSIISNTEAVQGSVSKHEFQAETKKLLDIVARSLYSEKEVFIRELISNASDALEKLRHKRVCEGQVLPEMEIHLQTDAEKGTITIQDTGIGMTKEELVSNLGTIARSGSKAFLEALQHQAETSSRIIGQFGVGFYSAFMVADKVEVYSRPAAPESPGYQWLSDGSGVFEIAEASGVRPGTKIIIHLKSDCKDFANESRVQDVVTKYSNFVSFPLYLNGRRINTLQAIWMMDPKDISEFQHEEFYRYIAQAYDKPRFILHYKTDAPLNIRSIFYVPEMKPSMFDVSRELGSSVALYSRKVLIQTKATDILPKWLRFVRGVVDSEDIPLNLSRELLQESALIRKLRDVLQQRLIKFFIDQSKKDAEKYAKFFEDYGLFMREGIVTTAEQDIKEDIAKLLRYESSALPAGQLTSLSDYASRMQAGTRNIYYLCAPNRHLAEHSPYYEAMKQKQTEVLFCYEQFDELTLLHLREFDKKKLISVETDIVVDHYKEEKFEDTSPAGERLSEKETEELMAWMRNALGSRVTNVKVTFRLDTHPAMVTVLEMGAARHFLRMQQLAKTQEERAQLLQPTLEINPRHTLIKKLNQLREREPELAQLLVDQIYENAMIAAGLVDDPRAMVGRLNDLLVKALERH
binding: binds
